According to patent US20050065340A1, “Metabotropic glutamate receptor-5 modulators” (priority 2001, published 2005):
Where a name gives a salt, the structure may show the parent alone. Some results were stated once for a whole list of compounds, not compound by compound.

Protein sequences, listed by entry. Tags and fused reporters are not part of them. Residues count along the entry.
UniProt P41594, 21-1180 isoform P41594-2 limits assumed: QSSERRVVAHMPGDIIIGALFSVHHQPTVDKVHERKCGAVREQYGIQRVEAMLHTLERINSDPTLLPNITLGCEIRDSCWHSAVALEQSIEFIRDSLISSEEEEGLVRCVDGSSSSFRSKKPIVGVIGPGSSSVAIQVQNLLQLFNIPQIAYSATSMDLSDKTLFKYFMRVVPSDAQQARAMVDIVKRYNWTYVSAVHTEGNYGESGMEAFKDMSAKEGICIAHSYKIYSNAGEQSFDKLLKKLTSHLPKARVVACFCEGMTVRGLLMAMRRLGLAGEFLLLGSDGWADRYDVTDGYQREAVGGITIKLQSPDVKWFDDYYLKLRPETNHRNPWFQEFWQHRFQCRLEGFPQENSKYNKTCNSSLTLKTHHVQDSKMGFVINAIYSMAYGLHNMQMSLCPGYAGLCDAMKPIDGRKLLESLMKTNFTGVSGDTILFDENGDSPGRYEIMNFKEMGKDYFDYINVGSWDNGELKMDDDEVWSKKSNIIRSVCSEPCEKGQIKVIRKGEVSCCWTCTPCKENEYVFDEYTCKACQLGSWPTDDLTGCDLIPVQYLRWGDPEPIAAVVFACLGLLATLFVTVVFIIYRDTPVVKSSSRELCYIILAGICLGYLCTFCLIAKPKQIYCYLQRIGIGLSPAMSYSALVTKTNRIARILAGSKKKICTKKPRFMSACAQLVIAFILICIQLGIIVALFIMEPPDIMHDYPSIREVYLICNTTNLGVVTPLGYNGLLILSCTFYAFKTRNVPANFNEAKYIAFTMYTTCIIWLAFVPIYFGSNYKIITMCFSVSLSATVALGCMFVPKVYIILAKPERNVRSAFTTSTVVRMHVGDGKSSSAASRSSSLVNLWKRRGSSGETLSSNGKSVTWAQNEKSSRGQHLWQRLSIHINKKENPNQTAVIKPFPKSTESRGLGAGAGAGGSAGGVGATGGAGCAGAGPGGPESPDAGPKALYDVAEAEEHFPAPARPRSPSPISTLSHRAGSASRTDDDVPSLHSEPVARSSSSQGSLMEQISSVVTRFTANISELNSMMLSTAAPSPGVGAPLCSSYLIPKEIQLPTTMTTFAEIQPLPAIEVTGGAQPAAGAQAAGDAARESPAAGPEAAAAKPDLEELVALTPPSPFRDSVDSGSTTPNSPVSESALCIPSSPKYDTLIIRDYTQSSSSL

Experiments:
hmGluR5 = target: T1, hmGluR5 (Homo sapiens, UniProt P41594); assay: Phosphatidylinositol hydrolysis (PI) assay; assay type: cell-based; conditions: hmGluR5/L38-20 cells (mouse fibroblast Ltk), 10 μM glutamate; read-out: mGluR5 inhibitory activity, values in the PI assay
T1 construct: expressed in transfected cells; host or cells: mouse fibroblast Ltk- cells (hmGluR5a/L38-20 cell line; LM5a cell line)

hmGluR5a receptor = target: T2, hmGluR5a receptor (Homo sapiens, UniProt P41594); assay: Calcium flux assay (fura-2, glutamate-evoked [Ca2+]i); assay type: cell-based; conditions: hmGluR5a/L38-20 cells (mouse fibroblast Ltk-), 10 μM glutamate (EC80); read-out: mGluR5 inhibitory activity, values in the calcium flux assay
T2 construct: expressed in transfected cells; host or cells: mouse fibroblast Ltk- cells (hmGluR5a/L38-20 cell line; LM5a cell line)

Row | SMILES | IC50 (hmGluR5) [µM] | IC50 (hmGluR5a receptor) [µM]
1 | COc1cc(-c2nc3cccnc3o2)ccc1-c1ccccn1 [Example 66, 2-(3-Methoxy-4-pyridin-2-ylphenyl)[1,3]oxazolo[5,4-b]pyridine] | < 100 | < 5
2 | N#CC1(c2ccc(-c3nc4ccccc4o3)cc2Cl)CCCC1 [Example 19, 1-[4-(1,3-Benzoxazol-2-yl)-2-chlorophenyl]cyclopentanecarbonitrile] | < 100 | < 5
3 | CCC(C#N)c1ccc(-c2nc3ccccc3o2)cc1OC (stereo not drawn) [Example 24, 2-[4-(1,3-Benzoxazol-2-yl)-2-methoxyphenyl]butanenitrile] | < 100 | < 5
4 | COc1cc(-c2nc3cc(Br)ccc3o2)ccc1-c1ccccn1 [Example 60, 5-Bromo-2-(3-methoxy-4-pyridin-2-ylphenyl)-1,3-benzoxazole] | < 100 | < 5
5 | Cc1ccc2nc(-c3ccc(CC#N)c(F)c3)oc2c1 [Example 9, [2-Fluoro-4-(6-methyl-1,3-benzoxazol-2-yl)phenyl]acetonitrile] | < 100 | < 5
6 | COc1cc(-c2nc3ccccc3o2)ccc1Cn1ccnn1 [Example 33, 2-[3-Methoxy-4-(1H-1,2,3-triazol-1-ylmethyl)phenyl]-1,3 benzoxazole] | < 100 | < 5
7 | COc1cccc(-c2ccc(-c3nc4ccccc4o3)cc2OC)n1 [Example 69, 2-[3-Methoxy-4-(6-methoxypyridin-2-yl)phenyl]-1,3-benzoxazole] | < 100 | < 5
8 | COc1cc(-c2nc3ccccc3o2)ccc1-c1ccc(N(C)C)cn1 [Example 79, 6-[4-(1,3-Benzoxazol-2-yl)-2-methoxyphenyl]-N,N-dimethylpyridin-3-amine] | < 100 | < 5
9 | N#CCc1ccc(-c2nc3ccccc3o2)cc1OCCc1ccc(F)cc1 [Example 13, {4-(1,3-Benzoxazol-2-yl)-2-[2-(4-fluorophenyl)ethoxy]phenyl}acetonitrile] | < 100 | < 5
10 | COc1cc(-c2nc3ccccc3o2)ccc1Cn1ccnc1 [Example 36, 2-[4-(1H-Imidazol-1-ylmethyl)-3-methoxyphenyl]1,3-benzoxazole] | < 100 | < 5
11 | N#CC1(c2ccc(-c3nc4ccccc4o3)cc2Cl)CCCCC1 [Example 20, 1-[4-(1,3-Benzoxazol-2-yl)-2chlorophenyl)cyclohexanecarbonitrile] | < 100 | < 5
12 | Cc1cc(-c2nc3ccccc3o2)ccc1-c1ncccn1 [Example 52, 2-(3-Methyl-4-pyrimidin-2-ylphenyl)-1,3-benzoxazole] | < 100 | < 5
13 | COc1cc(-c2nc3ccccc3o2)ccc1C1(C#N)CCCC1 [Example 29, 1-[4-(1,3-Benzoxazol-2-yl)-2-methoxyphenyl]cyclopentanecarbonitrile] | < 100 | < 5
14 | N#CCc1ccc(-c2nc3ccccc3o2)cc1-c1cccc(C#N)c1 [Example 4, 5′-(1,3-Benzoxazol-2-yl)-2′-(cyanomethyl)-1,1′-biphenyl-3-carbonitrile] | < 100 | < 5
15 | COc1cc(-c2nc3cc(F)ccc3o2)ccc1-c1ccccn1 [Example 58, 5-Fluoro-2-(3-methoxy-4-pyridin-2-ylphenyl)-1,3-benzoxazole hydrochloride] | < 100 | < 5
16 | COc1cc(-c2nc3cnccc3o2)ccc1-c1ccccn1 [Example 65, 2-(3-Methoxy-4-pyridin-2-ylphenyl)[1,3]oxazolo[4,5-c]pyridine] | < 100 | < 5
17 | COc1cc(-c2nc3ccccc3o2)ccc1Cn1cnnn1 [Example 40, 2-[3-Methoxy-4-(1H-tetrazol-1-ylmethyl)phenyl]-1,3-benzoxazole] | < 100 | < 5
18 | COc1cc(-c2nc3ccccc3o2)ccc1-c1cccc(N2CCOCC2)n1 [Example 76, 2-[3-Methoxy-4-(6-morpholin-4-ylpyridin-2-yl)phenyl]-1,3-benzoxazole] | < 100 | < 5
19 | N#CCc1ccc(-c2nc3ccccc3o2)cc1OCCO [Example 16, [4-(1,3-Benzoxazol-2-yl)-2-(hydroxyethoxy)phenyl]acetonitrile] | < 100 | < 5
20 | COc1cc(-c2nc3ccccc3o2)ccc1C(C)C#N (stereo not drawn) [Example 23, 2-[4-(1,3-Benzoxazol-2-yl)-2-methoxyphenyl]propanenitrile] | < 100 | < 5
21 | COC(=O)c1cncn1Cc1ccc(-c2nc3ccccc3o2)cc1OC [Example 41, Methyl 1-[4-(1,3-benzoxazol-2-yl)-2-methoxybenzyl]-1H-imidazole-5-carboxylate] | < 100 | < 5
22 | COc1cc(-c2nc3ccccc3o2)ccc1-c1cccc(C)n1 [Example 68, 2-[3-Methoxy-4-(6-methylpyridin-2-yl)phenyl]-1,3-benzoxazole] | < 100 | < 5
23 | COc1cc(-c2nc3ccccc3o2)cc(OC)c1CC#N [Example 30, [4-(1,3-Benzoxazol-2-yl)-2,6-dimethoxyphenyl]acetonitrile] | < 100 | < 5

Row | SMILES | IC50 (hmGluR5) [µM] | IC50 (hmGluR5a receptor) [µM]
24 | COc1cc(-c2nc3ccccc3o2)ccc1-c1ccc(Cl)cn1 [Example 70, 2-[4-(5-Chloropyridin-2-yl)-3-methoxyphenyl]-1,3-benzoxazole] | < 100 | < 5
25 | N#CC(F)c1ccc(-c2nc3ccccc3o2)cc1Cl (stereo not drawn) [Example 21, [4-(1,3-Benzoxazol-2-yl)-2-chlorophenyl](fluoro)acetonitrile] | < 100 | < 5
26 | COc1cc(-c2nc3cccc(F)c3o2)ccc1-c1ccccn1 [Example 59, 7-Fluoro-2-(3-methoxy-4-pyridin-2-ylphenyl)-1,3-benzoxazole hydrochloride] | < 100 | < 5
27 | COc1cc(-c2nc3ccccc3o2)ccc1-c1ccccn1 [Example 54, 2-(3-Methoxy-4-pyridin-2-ylphenyl)-1,3-benzoxazole hydrochloride salt] | < 100 | < 5
28 | COc1cc(-c2nc3ccccc3o2)ccc1-c1ccc(F)nc1 [Example 74, 2-[4-(6-Fluoropyridin-3-yl)-3-methoxyphenyl]-1,3-benzoxazole] | < 100 | < 5
29 | N#CCc1ccc(-c2nc3ccccc3o2)cc1Cl [Example 17, [4-(1,3-Benzoxazol-2-yl)-2-chlorophenyl]acetonitrile] | < 100 | < 5
30 | COc1cc(-c2nc3ccccc3o2)ccc1-c1cc(C)ccn1 [Example 72, 2-[3-Methoxy-4-(4-methylpyridin-2-yl)phenyl]-1,3-benzoxazole] | < 100 | < 5
31 | COc1cc(-c2nc3c(o2)CCCC3)ccc1CC#N [Example 80, [2-methoxy-4-(4,5,6,7-tetrahydro-1,3-benzoxazol-2-yl)phenyl]acetonitrile] | < 100 | < 5
32 | N#CCc1ccc(-c2nc3ncccc3o2)cc1Cl [Example 31, (2-Chloro-4-[1,3]oxazolo[4,5-b]pyridin-2-ylphenyl)acetonitrile] | < 100 | < 5
33 | N#CCc1ccc(-c2nc3ccccc3o2)cc1F [Example 8, [4-(1,3-Benzoxazol-2-yl)-2-fluorophenyl]acetonitrile] | < 100 | < 5
34 | COc1cc(-c2nc3ccccc3o2)ccc1Cc1ccncc1 [Example 48, 2-[3-Methoxy-4-(pyridin-4-ylmethyl)phenyl]-1,3-benzoxazole] | < 100 | < 5
35 | COc1cc(-c2nc3cc(C#N)ccc3o2)ccc1-c1ccccn1 [Example 61, 5-Cyano-2-(3-methoxy-4-pyridin-2-ylphenyl)-1,3-benzoxazole] | < 100 | < 5
36 | Cc1cc(-c2nc3ccccc3o2)ccc1-c1ccccn1 [Example 51, 2-(3-Methyl-4-pyridin-2-ylphenyl)-1,3-benzoxazole] | < 100 | < 5
37 | COc1cc(-c2nc3ccccc3o2)ccc1Cn1cncn1 [Example 35, 2-[3-Methoxy-4-(1H-1,2,4-triazol-1-ylmethyl)phenyl]-1,3-benzoxazole] | < 100 | < 5
38 | COc1cc(-c2nc3ccccc3o2)ccc1Cc1cccnc1 [Example 47, 2-[3-Methoxy-4-(pyridin-3-ylmethyl)phenyl]-1,3-benzoxazole] | < 100 | < 5
39 | N#Cc1cc(-c2nc3ccccc3o2)ccc1-c1ccccn1 [Example 55, 5-(1,3-Benzoxazol-2-yl)-2-pyridin-2-yl benzonitrile] | < 100 | < 5
40 | N#CCc1ccc(-c2nc3cc(Cl)ccc3o2)cc1F [Example 11, [4-(5-Chloro-1,3-benzoxazol-2-yl)-2-fluorophenyl]acetonitrile] | < 100 | < 5
41 | COc1cc(-c2nc3ccccc3o2)ccc1C1(C#N)CCC1 [Example 26, 1-[4-(1,3-Benzoxazol-2-yl)-2-methoxyphenyl]cyclobutanecarbonitrile] | < 100 | < 5
42 | COc1cc(-c2nc3ccccc3o2)ccc1-c1cccnc1 [Example 56, 2-(3-Methoxy-4-pyridin-3-ylphenyl)-1,3-benzoxazole] | < 100 | < 5
43 | COc1cc(-c2nc3ncccc3o2)ccc1-c1ccccn1 [Example 64, 2-(3-Methoxy-4-pyridin-2-ylphenyl)[1,3]oxazolo[4,5-b]pyridine] | < 100 | < 5
44 | CCOc1cc(-c2nc3ccccc3o2)ccc1CC#N [Example 14, [4-(1,3-Benzoxazol-2-yl)-2-ethoxyphenyl]acetonitrile] | < 100 | < 5
45 | COc1cc(-c2nc3ccccc3o2)ccc1CN1CCCC1 [Example 44, 2-[3-Methoxy-4-(pyrrolidin-1-ylmethyl)phenyl]-1,3-benzoxazole] | < 100 | < 5
